According to patent US7087385B2, “Promoter sequences for urocortin II and the use thereof” (Wisconsin Alumni Research Foundation, priority 2002, dated 2006):
At least one compound was matched to its structure with a doubt left.

Legend:
human UCN II promoter [1] = assay: Dexamethasone induced expression from UCN II promoter fragments in CHO-K1 cultures; type: cell-based, hamster; details: 20 μM dexamethasone, 22 h, CHO-K1, P<0.001
Source text: (§1) The above constructs containing the human UCN II promoter fragments placed upstream of the firefly luciferase gene can be used to transfect immortalized cell lines. The constructs can be transfected into CHO-K1 cell lines using Lipofectamine 2000 (Invitrogen Life Technologies). Primary cultures of the central nervous system, as well as additional immortalized cell lines, are also appropriate for these transfections. To control for transfection efficiency, the cells can also be co-transfected with the pRL-TK vector (Promega). The pRL-TK vector contains the Renilla luciferase gene downstream of the herpes simplex virus thymidine kinase promoter, a promoter which provides low to moderate levels of expression. Cell lysates can be assayed for total protein using the BCA assay (Pierce, Rockford, Ill.) to standardize for the protein extraction. The level of reporter gene expression from a standardized amount of cell extract can be quantified by measuring luciferase activity using a luminometer (EG&G Wallac, Gaithersburg, Md.) and the dual-luciferase reporter assay system (Promega). Firefly luciferase activity reflects UCN II promoter activity and Renilla luciferase activity can be used to normalize data between experiments.
Using the methods described previously, CHO-K1 cultures were transiently transfected with the UCN II promoter constructs. […]

human UCN II promoter [2] = assay: Dexamethasone induced expression from UCN II promoter fragments in CATH.a cultures; type: cell-based, mouse; details: 20 μM dexamethasone, 22 h, P<0.001
Source text: as §1
In the following experiments, we confirmed the dexamethasone treatment results in the CATH.a cell line. […]

[3] = system: human UCN II promoter GRE site; assay: Dexamethasone induced expression from wild type and GRE-mutated UCN II promoter fragments in CHO-K1 cultures; type: cell-based; details: 20 μM dexamethasone
[4] = system: human UCN II promoter GRE site; assay: Dexamethasone induced expression from wild type and GRE-mutated UCN II promoter fragments in CATH.a cultures; type: cell-based; details: 20 μM dexamethasone

In the case of `C[C@@H]1C[C@H]2[C@@H]3CCC4=CC(=O)C=C[C@]4(C)[C@@]3(F)[C@@H](O)C[C@]2(C)[C@@]1(O)C(=O)CO` [dexamethasone], the “expression within the −1426 construct vs vehicle” value (human UCN II promoter [1]) is reported as “significantly decreased expression”, the “expression within the −1987 and −1426 constructs vs vehicle” value (human UCN II promoter [2]) is reported as “significantly decreased expression” and the “expression from wild type −1426 construct vs vehicle” value ([3]; CHO-K1) is reported as “significantly (P<0.001) decreased expression”. The “expression from wild type −3527 construct vs vehicle” value ([3]; CHO-K1) was “unaffected”, the “expression from GRE-mutated −1426 construct vs wild type −1426 construct, both given dexamethasone” value ([3]; CHO-K1, P<0.001) was “significantly greater” and the “expression from GRE-mutated −1426 construct vs mutated construct given vehicle” value ([3]; CHO-K1, TGTC→TACC) was “not significantly different”. The “expression from wild type −1426 construct vs vehicle” value [4] was “significantly (P<0.001) decreased expression”, the “expression from wild type −3527 construct vs vehicle” value [4] was “unaffected” and the “expression from GRE-mutated −1426 construct vs wild type −1426 construct, both given dexamethasone” value ([4]; P<0.001) was “significantly greater”. For the same compound, the “expression from GRE-mutated −1426 construct vs mutated construct given vehicle” value ([4]; TGTC→TACC) was “not significantly different”.
